Measurements published in publication PMC8211685.
Results are given in words; binding and its absence hold for the method and conditions named. In cells and extracts the contact can be indirect. Some binding calls cover weakened binding; strength is not graded here.

Protein sequences, listed by entry. Tags and fused reporters are not part of them. Residues count along the entry.
UniProt Q94AQ8, residues 18-348: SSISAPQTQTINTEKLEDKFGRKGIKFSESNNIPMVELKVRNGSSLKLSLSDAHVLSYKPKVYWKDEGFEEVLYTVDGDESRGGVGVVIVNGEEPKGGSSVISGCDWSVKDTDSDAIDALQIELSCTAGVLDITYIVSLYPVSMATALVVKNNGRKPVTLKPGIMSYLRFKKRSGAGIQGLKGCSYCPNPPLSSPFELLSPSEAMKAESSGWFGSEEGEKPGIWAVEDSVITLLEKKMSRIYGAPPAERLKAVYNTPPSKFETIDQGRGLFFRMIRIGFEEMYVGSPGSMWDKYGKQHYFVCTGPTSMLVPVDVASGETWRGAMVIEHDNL
UniProt Q9LU21, residues 49-204: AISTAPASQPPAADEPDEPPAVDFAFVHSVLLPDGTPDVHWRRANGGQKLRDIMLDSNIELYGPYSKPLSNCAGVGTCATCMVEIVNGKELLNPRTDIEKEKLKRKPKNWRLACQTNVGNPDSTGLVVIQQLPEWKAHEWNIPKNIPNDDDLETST

Molecular target: T1, NDH-dependent Cyclic Electron Flow 5 (NDF5) (Arabidopsis thaliana (endogenous in leaves)) (UniProt Q9C503)
T1 sequence: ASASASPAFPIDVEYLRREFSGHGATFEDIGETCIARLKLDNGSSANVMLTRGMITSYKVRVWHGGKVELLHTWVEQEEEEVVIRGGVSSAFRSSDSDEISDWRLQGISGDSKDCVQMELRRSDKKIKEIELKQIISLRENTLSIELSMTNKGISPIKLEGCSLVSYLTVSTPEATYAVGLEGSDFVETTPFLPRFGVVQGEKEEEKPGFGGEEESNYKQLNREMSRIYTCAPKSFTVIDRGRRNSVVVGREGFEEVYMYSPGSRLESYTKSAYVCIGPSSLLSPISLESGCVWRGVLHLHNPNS
Test: co-sedimentation; sucrose density gradient (5–40%) ultracentrifugation, 24 h at 150,000g, of chloroplast membranes solubilized with 0.9% n-dodecyl-β-D-maltoside; 25 mM MES-NaOH pH 6.8, 5 mM MgCl2, 10 mM NaCl, 0.02% n-dodecyl-β-D-maltoside; 30 fractions, immunoblots; Arabidopsis wild type and pnsb1, pnsb4, pnsb5, pnsl3, crr3 and lhca6 mutants

Row | binding | Substance
1 | binds | PnsB2 (from UniProt Q94AQ8 18-348)
2 | binds | PnsB3 (from UniProt Q9LU21 49-204)
